Each number is a percent effect as filed.
The record does not define 0% and 100%; most values in the screen are far below 50% and negative numbers occur (in some assays of this library far below -100).
This is an unselected part of the compounds tested.
A dash means the value is not listed here; it may have been measured.

Amino acid sequences for entries named in this document (tags omitted).
UniProt P9WFT3, whole entry: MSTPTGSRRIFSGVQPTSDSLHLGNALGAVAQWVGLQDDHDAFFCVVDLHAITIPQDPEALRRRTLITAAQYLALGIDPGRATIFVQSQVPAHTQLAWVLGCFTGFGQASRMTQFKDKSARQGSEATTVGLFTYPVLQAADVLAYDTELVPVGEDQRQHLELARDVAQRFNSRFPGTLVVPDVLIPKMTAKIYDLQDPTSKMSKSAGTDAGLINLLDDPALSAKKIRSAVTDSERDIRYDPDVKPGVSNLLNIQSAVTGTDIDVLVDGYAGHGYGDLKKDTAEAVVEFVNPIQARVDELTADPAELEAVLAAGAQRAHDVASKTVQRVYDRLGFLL
UniProt I6X8D2, whole entry: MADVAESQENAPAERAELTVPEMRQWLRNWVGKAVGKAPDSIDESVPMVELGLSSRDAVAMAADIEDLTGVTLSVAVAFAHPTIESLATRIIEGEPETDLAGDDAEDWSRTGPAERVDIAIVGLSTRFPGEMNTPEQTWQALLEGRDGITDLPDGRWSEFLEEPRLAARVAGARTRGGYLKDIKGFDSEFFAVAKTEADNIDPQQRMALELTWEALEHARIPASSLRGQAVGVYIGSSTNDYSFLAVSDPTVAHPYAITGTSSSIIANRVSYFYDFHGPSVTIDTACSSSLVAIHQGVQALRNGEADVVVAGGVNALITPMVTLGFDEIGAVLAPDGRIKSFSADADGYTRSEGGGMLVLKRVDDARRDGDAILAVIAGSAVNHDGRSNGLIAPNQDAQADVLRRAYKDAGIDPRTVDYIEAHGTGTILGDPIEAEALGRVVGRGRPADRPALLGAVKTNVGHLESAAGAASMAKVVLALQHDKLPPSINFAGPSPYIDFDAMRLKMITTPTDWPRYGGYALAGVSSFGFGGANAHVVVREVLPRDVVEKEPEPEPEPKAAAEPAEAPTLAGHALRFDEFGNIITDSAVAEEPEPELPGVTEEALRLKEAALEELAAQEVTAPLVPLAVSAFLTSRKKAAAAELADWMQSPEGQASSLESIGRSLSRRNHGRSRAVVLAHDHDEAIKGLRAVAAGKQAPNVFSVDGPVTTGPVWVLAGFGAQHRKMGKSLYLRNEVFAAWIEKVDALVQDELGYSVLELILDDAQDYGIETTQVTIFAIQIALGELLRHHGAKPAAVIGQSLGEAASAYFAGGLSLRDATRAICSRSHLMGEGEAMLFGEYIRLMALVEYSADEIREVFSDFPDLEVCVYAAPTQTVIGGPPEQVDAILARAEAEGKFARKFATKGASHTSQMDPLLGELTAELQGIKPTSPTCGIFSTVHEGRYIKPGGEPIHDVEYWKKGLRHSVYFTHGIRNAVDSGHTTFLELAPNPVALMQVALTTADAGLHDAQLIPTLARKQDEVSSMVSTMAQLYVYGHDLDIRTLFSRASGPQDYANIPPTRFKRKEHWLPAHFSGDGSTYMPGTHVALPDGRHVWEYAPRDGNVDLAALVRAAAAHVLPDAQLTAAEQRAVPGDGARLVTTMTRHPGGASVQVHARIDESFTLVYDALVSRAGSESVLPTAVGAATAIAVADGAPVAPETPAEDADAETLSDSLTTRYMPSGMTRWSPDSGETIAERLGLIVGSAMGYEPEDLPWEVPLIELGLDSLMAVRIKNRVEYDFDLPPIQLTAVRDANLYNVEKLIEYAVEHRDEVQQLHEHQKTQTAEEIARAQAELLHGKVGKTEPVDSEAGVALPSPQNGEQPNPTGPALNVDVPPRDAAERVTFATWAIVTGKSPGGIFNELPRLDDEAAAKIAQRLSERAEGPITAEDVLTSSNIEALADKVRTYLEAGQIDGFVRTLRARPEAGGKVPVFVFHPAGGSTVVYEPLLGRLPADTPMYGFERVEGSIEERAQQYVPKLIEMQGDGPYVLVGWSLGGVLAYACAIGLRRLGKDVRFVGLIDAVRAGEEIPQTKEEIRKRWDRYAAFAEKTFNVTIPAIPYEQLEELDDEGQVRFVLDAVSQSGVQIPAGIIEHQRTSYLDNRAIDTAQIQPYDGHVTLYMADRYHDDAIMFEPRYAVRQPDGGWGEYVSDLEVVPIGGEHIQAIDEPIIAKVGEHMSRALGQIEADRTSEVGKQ
UniProt P9WNZ1, whole entry: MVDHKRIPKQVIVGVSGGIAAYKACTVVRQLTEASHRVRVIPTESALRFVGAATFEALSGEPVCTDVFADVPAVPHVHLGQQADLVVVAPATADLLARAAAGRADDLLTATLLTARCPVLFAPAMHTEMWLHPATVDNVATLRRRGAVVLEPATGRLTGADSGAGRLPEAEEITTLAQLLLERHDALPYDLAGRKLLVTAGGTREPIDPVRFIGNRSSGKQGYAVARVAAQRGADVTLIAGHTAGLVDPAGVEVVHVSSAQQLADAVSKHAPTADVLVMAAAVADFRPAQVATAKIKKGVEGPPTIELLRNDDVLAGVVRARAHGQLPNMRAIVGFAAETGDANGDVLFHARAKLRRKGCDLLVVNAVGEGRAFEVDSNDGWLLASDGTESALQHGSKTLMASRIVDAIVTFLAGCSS

MtTrpRS: 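Enzyme assay of tryptophanyl-tRNA synthetase; the read-out is not stated. Target: Tryptophan-tRNA ligase, Mycobacterium tuberculosis (UniProt P9WFT3). Compounds at 10 µM. Direction is not recorded; retested compounds ran higher, which suggests that high means inhibition. Of about 65,000 compounds tested this way, about 64 (0.098%) reached 50% or more in at least one test.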
Pks13 thioesterase: 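Polyketide synthase Pks13, Mycobacterium tuberculosis (UniProt I6X8D2). Enzyme assay of the thioesterase domain of polyketide synthase 13; the read-out is not stated. Concentration: 30 µM. Higher reads as stronger inhibition (inferred from which compounds were picked for retests). Of about 67,000 compounds tested this way, about 300 (0.46%) reached 50% or more in at least one test.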
CoaBC: 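Coenzyme A biosynthesis protein CoaBC, Mycobacterium tuberculosis (UniProt P9WNZ1). Enzyme assay of CoaBC with a phosphate dye (Biomol Green) read at 650 nm. Compounds at 30 µM. Higher reads as stronger inhibition, judged from the few compounds that gave an IC50. Most strong results did not repeat in a second test. Of about 67,000 compounds tested this way, about 40 (0.06%) reached 50% or more in at least one test.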

compound	MtTrpRS	Pks13 thioesterase	CoaBC
CC(=O)N1CCO[C@@H]2CN(S(=O)(=O)C3CC3)C[C@@H]2C1	-	-13.04	6.914
Cc1nc2c(c(NC(C)C)n1)CCN(C1CCOCC1)CC2	-3.128	-33.18	-
c1nc(N2CCOC(Cn3cncn3)C2)c2cc[nH]c2n1 (centres undefined)	-3.834	-3.056	-0.8906
O=C1COC2(CCN(c3ccccn3)CC2)CN1	-2.164	-10.98	3.055
CCCn1ccc(C(=O)N2CCC(C)CC2)n1	-2.568	-4.798	1.364
COC1CCCOC12CCN(C(=O)NCCc1cccs1)CC2 (centres undefined)	0.4082	-10.02	3.396
Cn1cnnc1CC1CCN(Cc2nn(C)c3cccc(Cl)c23)CC1	0.06915	-10.05	1.98
N#Cc1ccc(S(=O)(=O)Nc2cnn(C3CCOCC3)c2)cc1	3.081	18.37	2.046
O=C(CO)N1CCC(CCc2ccnc(Nc3cnccn3)c2)CC1	-2.185	1.965	7.524
NC(=O)c1ccc(C2CCCN2C(=O)CCc2nc3ccccc3s2)s1 (centres undefined)	1.351	6.931	-0.8631
CC(C)c1noc(CCC(=O)NCC2CCC(C(N)=O)CC2)n1 (centres undefined)	-7.917	-14.87	-0.4545
CCc1cnc(N)nc1NCCc1ccc(OC)cc1OC	-1.927	22.74	-28.21
CCCc1nc(C)cc(N2Cc3cnn(CCO)c3C2)n1	-0.6256	-13.72	4.573
O=C1CC(N2CCN(c3ccc(F)cc3)CC2)C(=O)N1Cc1cccs1 (centres undefined)	-0.4078	-0.7003	-17.67
Cc1ccc(C(=O)NCCS(C)(=O)=O)c(=O)[nH]1	0.7505	-0.2759	10.14
NC1(c2nc(-c3cccs3)cc(=O)[nH]2)CCCCC1	11.55	27.53	-2.552
CCc1cn[nH]c1C1CCCN(C(=O)c2ncoc2C(C)C)C1 (centres undefined)	0.8942	-13.18	5.134
COCCN1C[C@@H]2[C@@H](OC)CCN(Cc3cccc(C)n3)[C@@H]2C1	1.234	-9.925	-9.677
COC(=O)c1cc(OCC2CCC2)cc(C(=O)N[C@H](C)C(N)=O)c1	-2.855	-9.605	-0.1266
Cc1cc(NC(=O)CN2CCCC2c2noc(C(C)C)n2)no1 (centres undefined)	25.45	-	1.567
CN(C)S(=O)(=O)c1ccc(-c2nc(C#N)c(NC3CCCCC3)o2)o1	-1.708	-	-0.4843
Cc1ccc(CN2C[C@@H]3CN(C(=O)c4cccn4C)C[C@@H]3C2)cc1	-4.942	-25.26	2.445
CS(=O)(=O)c1ccccc1C(=O)NCCCN1CCc2ccccc2C1	0.2534	-10.43	-1.956
CC(Cn1cccn1)NC(=O)Nc1ccc(N2CCCCC2)nc1 (centres undefined)	-2.493	-38.56	3.353
Cc1sc2c(C3CCCN(C)C3)nc(C)n2c1C (centres undefined)	8.87	-23	-1.217
O=C(CCc1ccsc1)Nc1ccnn1C1CCS(=O)(=O)C1 (centres undefined)	6.458	-13.42	10.51
COc1c(CNC2CCOc3ccccc32)c(C(C)C)nn1C (centres undefined)	-5.928	-8.422	9.444
Cc1ccc(CN2C[C@H]3C[C@H](C(=O)NCC4CC4)N(C)[C@H]3C2)o1	-4.146	-14.08	2.118
O=C(CSc1ccc(F)cc1F)NS(=O)(=O)c1ccc2c(c1)OCCO2	-3.578	-6.249	2.155
COc1c(CNCc2ccc(N3CCOCC3)cc2)c(C)nn1C	-2.805	-38.76	0.4132
COCc1ccc(C(=O)N2CCc3c(ncnc3N3CCOCC3)C2)o1	3.232	-28.26	-1.381
COC(=O)C1CCCN1C(=O)c1ccc(-n2nc(C)cc2C)cc1 (centres undefined)	-2.676	-18.33	6.925
CSc1ccccc1CN1CCn2nc(CNC(=O)N(C)C)cc2C1	-4.079	-4.795	1.392
COc1cccc(CCC2CCCN(C(=O)c3ccc(OC)o3)C2)c1 (centres undefined)	4.063	-259	0.7317
Fc1ccc(-c2n[nH]cc2-c2ccnc(NCCN3CCCC3)n2)cc1	-1.605	20.14	4.302
CC(=O)Nc1cc(F)c(S(=O)(=O)N(C)CC2CCC2)c(F)c1	-9.459	-13.28	-4.032
CN(C)c1nc2c(c(=O)[nH]1)Cc1ccccc1OC2	5.172	-	13.39
CCC(CNS(N)(=O)=O)Oc1ccccc1F (centres undefined)	0.2865	-6.332	7.968
O=C(C[S+]([O-])Cc1ccc(Cl)cc1Cl)N1CCc2sccc2C1 (centres undefined)	5.054	4.551	0.8147
O=C(c1nnn(-c2ccccc2F)c1-c1ccccn1)N1CCSCC1	0.5319	-33.09	7.822
CC(=O)N1CCCN(c2nccc(-c3cn(C)nc3C)n2)CC1	4.618	-0.1489	-14.73
Cc1ccccc1N1CCCN(C(=O)CCCS(N)(=O)=O)CC1	-4.633	-20.49	-13.43
CC(C)c1ocnc1C(=O)NC(c1nnc2n1CCNCC2)C(C)C (centres undefined)	0.5961	-12.52	11
O=c1ccc(-c2ccccc2F)nn1CCN1CCCS1(=O)=O	-2.515	-14.71	17.18
Cn1cc(CN2CCCC(CCc3ccc(F)cc3)C2)cn1 (centres undefined)	-0.7452	-19.03	4.156
COc1cc(NCC(c2ccccn2)N2CCOCC2)ncn1 (centres undefined)	-5.277	-24.49	8
CCCC(NC(=O)NCc1cccc(N(C)C)n1)c1ccccn1 (centres undefined)	2.034	-7.861	2.405
c1cncc(CN2CCC3(CCCN(c4nncs4)C3)C2)c1 (centres undefined)	-8.411	-10.55	-2.336
N#Cc1ccc(N2CCCC3(CCC(=O)N3CC3CC3)CC2)nc1 (centres undefined)	-	-18.64	1.114
COCCN(Cc1nc2c(cnn2C)c(=O)[nH]1)Cc1ccco1	0.8607	-4.116	3.44
O=C(Cc1cccnc1)N1CCC2(CCN(C3CCOC3)CC2)C1 (centres undefined)	19.68	-2.399	2.773
CCN1CCC2(CCN(c3ncccn3)CC2)C1=O	-6.302	-21.66	5.176
O=C(NCC(F)(F)F)C1CSCN1S(=O)(=O)c1ccc(F)cc1 (centres undefined)	-3.996	-20.34	1.828
Cc1ccc(C2CN(c3nnc(C(F)F)s3)CCO2)c(C)c1 (centres undefined)	-2.993	-26.36	-3.125
NC(=O)c1cn2cc(-c3ccccc3Cl)n(CC3CC3)c(=O)c2n1	-0.9662	-10.18	-8.442
COc1ccc2[nH]c(CNc3cc(C4CCNCC4)nc(C)n3)cc2c1	0.5228	-6.736	-1.72
CN(C)[C@H]1CCCCN(C(=O)CCc2csc(N)n2)C1	3.258	-9.99	-36.84
O=C(C1CCOC1)N1CCC2(CCCNC2)CC1 (centres undefined)	-11.19	-29.97	2.703
CCCn1[nH]cc/c1=N\C(=O)CN1CCCC1c1cccn1C (centres undefined)	2.477	-14.38	3.727
CC(=O)NCCNC(=O)CN1CCOC(Cn2cccn2)C1 (centres undefined)	1.161	4.611	5.604
O=C(c1ncccn1)N1C[C@@H]2COC[C@]2(COc2cccnc2)C1	-	-9.772	1.481
Cc1cnn(CCNCC(=O)NC(c2ccccc2)c2ccccc2)c1	7.572	2.072	5.216
Cc1cccc(C2(NC(=O)CCN3C(=O)CCC3=O)CCCC2)c1	0.7081	-28.77	-3.599
Cc1cccc(OCc2ccc(C(=O)N3N=CCC3(O)C(F)(F)F)o2)c1 (centres undefined)	-9.75	45.34	-6.622
Cc1nn(C)cc1CCC(=O)N1CCCC(n2cncn2)C1 (centres undefined)	-1.605	-8.768	2.738
CN1CCCC2(C1)CN(C(=O)C1CCCCC1)CCO2 (centres undefined)	-2.344	-27.16	4.835
O=c1ccc(-c2cccs2)nn1CN1CCOC(c2ccccc2)C1 (centres undefined)	1.19	-5.524	3.03
CN(C)C(=O)N1CCN(C(=O)c2ccc(Cl)c(Cl)c2)C(C)(C)C1	-2.688	-20.25	6.21

Some entries from above, unchanged:

Cc1ccc(CN2C[C@H]3C[C@H](C(=O)NCC4CC4)N(C)[C@H]3C2)o1 read MtTrpRS: -4.146%; Pks13 thioesterase: -14.08%; CoaBC: 2.118%.
CCc1cnc(N)nc1NCCc1ccc(OC)cc1OC read MtTrpRS: -1.927%; Pks13 thioesterase: 22.74%; CoaBC: -28.21%.
NC(=O)c1cn2cc(-c3ccccc3Cl)n(CC3CC3)c(=O)c2n1 read MtTrpRS: -0.9662%; Pks13 thioesterase: -10.18%; CoaBC: -8.442%.
CCCn1[nH]cc/c1=N\C(=O)CN1CCCC1c1cccn1C (centres undefined) read MtTrpRS: 2.477%; Pks13 thioesterase: -14.38%; CoaBC: 3.727%.
Cc1sc2c(C3CCCN(C)C3)nc(C)n2c1C (centres undefined) read MtTrpRS: 8.87%; Pks13 thioesterase: -23%; CoaBC: -1.217%.
Cc1cc(NC(=O)CN2CCCC2c2noc(C(C)C)n2)no1 (centres undefined) read MtTrpRS: 25.45%; CoaBC: 1.567%.
CCCc1nc(C)cc(N2Cc3cnn(CCO)c3C2)n1 read MtTrpRS: -0.6256%; Pks13 thioesterase: -13.72%; CoaBC: 4.573%.
O=C(C[S+]([O-])Cc1ccc(Cl)cc1Cl)N1CCc2sccc2C1 (centres undefined) read MtTrpRS: 5.054%; Pks13 thioesterase: 4.551%; CoaBC: 0.8147%.

The values are deposited in ChEMBL (CHEMBL3988442, “University of Dundee, Small-Polar-MMV Screening Library” (2021)).